{"source": "patent US12379386B2", "about": "“Antibodies to 25-hydroxyvitamin D2 and D3 for detecting total 25-hydroxyvitamin D” (Siemens Healthcare Diagnostics Inc., priority 2011, dated 2025)", "key": {"[1]": {"assay": "Interference study in ADVIA Centaur Vitamin D Total assay", "conditions": "for Bias: vs matched unspiked control"}, "[2]": {"test_system": "anti 25-hydroxy Vitamin D monoclonal antibody labeled with acridinium ester (monoclonal antibody 10H9)", "assay": "Cross-reactivity in ADVIA Centaur Vitamin D Total assay", "format": "binding, mouse", "description": "Biological sample is added to a reaction cuvette followed by displacement buffer and allowed to react for 4.5 minutes. Monoclonal antibody conjugated to acridinium ester is added and allowed to react for 5.5 minutes to bind 25-hydroxyvitamin D in the sample. […] The reaction cuvette is washed, and acid and base reagents are added to initiate the chemiluminescent reaction. The time-to-result is 18 minutes. An inverse relationship exists between the amount of 25-hydroxyvitamin D in the patient sample and the amount of relative light units (RLUs) detected by the system.\nAssay: The ADVIA Centaur Vitamin D Total assay is a one-pass, 18-minute antibody competitive immunoassay that uses an antifluorescein-labeled monoclonal antibody covalently bound to paramagnetic particles (PMPs), one monoclonal antibody labeled with acridinium ester (AE), and a vitamin D analog labeled with fluorescein (FIG. 8). The Vitamin D Total assay requires 20 μL of sample volume for a single determination. The time-to-first-result is 18 minutes and the throughput is 240 tests/hour.\nBriefly, the first step of the sequential step hapten/antibody competitive immunoassay using chemiluminescent technology begins with the analyzer dispensing 20 μL of biological sample into a cuvette followed by addition of 200 μl of displacement buffer (50 mM HEPES, 150 mM NaCl, 0.09% sodium azide, pH=7.5) containing 8-anilino-1-naphthalenesulfonic acid ammonium salt (Sigma-aldrich, St. Louis, MO) and ethylene glycol (Sigma-aldrich, St. Louis, MO) and incubation for 4.5 minutes at 37° C. Lite Reagent (50 μL) containing an anti 25-hydroxy Vitamin D monoclonal antibody labeled with acridinium ester (monoclonal antibody 10H9) is added to the mixture and incubated for 5.5 min at 37° C. C22-PEG-BSA-fluorescein conjugate (50 μL) and anti-fluorescein monoclonal antibody coated paramagnetic microparticles (100 μL) are added to the mixture and incubated for 3.75 minutes at 37° C. The fourth step is separation of Solid Phase complex with bound C22-PEG-BSA-fluorescein conjugate and anti 25-hydroxy vitamin D monoclonal antibody labeled with acridinium ester, followed by washing three times to remove any free Lite Reagent. Last is the sequential dispensing of 300 μL each of acid reagent then base reagent to initiate the chemiluminescent reaction. The total incubation time from sample to result is 18 minutes. There is an indirect relationship between the amount of 25-hydroxy vitamin D present in the biological sample and the amount of chemiluminescence quantified as relative light units (RLUs). In the Centaur-based assay, there is an inverse relationship between RLUs emitted by the acridinium ester and the amount of vitamin D because the 25-hydroxyvitamin D released from the carrier protein in the plasma competes with the Vitamin D-BSA-Fluorescein for binding with a limited amount of the acridinium-labeled 10H9 monoclonal antibody. Higher levels of 25(OH)D in the patient sample would lower the amount of the acridinium-MAb-VitD-BSA-Fluorescein complex on the magnetic particles resulting in lower RLUs.\nCross-reactivity: Five vitamin D derivatives were analyzed using the ADVIA Centaur Vitamin D Total assay. The vitamin D derivatives were spiked into a sample containing 27 ng/mL of vitamin D total. Three replicates of the spiked samples were assayed and the vitamin D total concentration determined."}, "[3]": {"conditions": "crossreactant 100 ng/mL spiked, expected (endogenous) vitamin D total 27 ng/mL"}}}
{"compound": "Hemoglobin: endogenous interferent", "values": [{"measurement": "Vitamin D Total Observed", "setting": "[1]; interferent 500 mg/dL", "value": 29.70, "unit": "ng/mL"}, {"measurement": "Bias", "setting": "[1]; interferent 500 mg/dL", "value": 2.13, "unit": "%"}]}
{"compound": "O=c1[nH]c(=O)c2[nH]c(=O)[nH]c2[nH]1", "note": "[Uric Acid]", "values": [{"measurement": "Vitamin D Total Observed", "setting": "[1]; interferent 20 mg/dL", "value": 33.45, "unit": "ng/mL"}, {"measurement": "Bias", "setting": "[1]; interferent 20 mg/dL", "value": "−5.64", "unit": "%"}]}
{"compound": "C=C1CC[C@H](O)C/C1=C/C=C1\\CCC[C@]2(C)[C@@H]([C@H](C)CCCC(C)C)CC[C@@H]12", "note": "[Vitamin D3]", "values": [{"measurement": "Observed Vitamin D Total", "setting": "[2]; [3]", "value": 28, "unit": "ng/mL"}]}
{"compound": "C=C1CC[C@H](O)C/C1=C/C=C1\\CCC[C@]2(C)[C@@H]([C@H](C)/C=C/[C@H](C)C(C)(C)O)CC[C@@H]12", "note": "[25-(OH)-Vit D2, 25-hydroxyvitamin D2]", "values": [{"measurement": "Observed Vitamin D Total", "setting": "[2]; crossreactant 30 ng/mL spiked, expected (endogenous) vitamin D total 27 ng/mL", "value": 58, "unit": "ng/mL"}]}
{"compound": "Conjugated Bilirubin", "values": [{"measurement": "Vitamin D Total Observed", "setting": "[1]; interferent 60 mg/dL", "value": 30.67, "unit": "ng/mL"}, {"measurement": "Bias", "setting": "[1]; interferent 60 mg/dL", "value": "−9.31", "unit": "%"}]}
{"compound": "C=C1CC[C@H](O)C/C1=C/C=C1\\CCC[C@]2(C)[C@@H]([C@H](C)CCCC(C)(C)O)CC[C@@H]12", "note": "[25-(OH)-Vit D3, 25-hydroxyvitamin D3]", "values": [{"measurement": "Observed Vitamin D Total", "setting": "[2]; crossreactant 27 ng/mL, expected (endogenous) vitamin D total 0 ng/mL", "value": 27, "unit": "ng/mL"}]}
{"compound": "C=C1CC[C@@H](O)C/C1=C/C=C1\\CCC[C@]2(C)[C@@H]([C@H](C)CCCC(C)(C)O)CC[C@@H]12", "note": "[3-epi-25(OH)D3]", "values": [{"measurement": "Observed Vitamin D Total", "setting": "[2]; [3]", "value": 27, "unit": "ng/mL"}]}
{"compound": "C=CC1=C(C)/C(=C/c2[nH]c(Cc3[nH]c(/C=C4\\NC(=O)C(C)=C4C=C)c(C)c3CCC(=O)O)c(CCC(=O)O)c2C)NC1=O", "note": "[Unconjugated Bilirubin]", "values": [{"measurement": "Vitamin D Total Observed", "setting": "[1]; interferent 60 mg/dL", "value": 32.67, "unit": "ng/mL"}, {"measurement": "Bias", "setting": "[1]; interferent 60 mg/dL", "value": 5.77, "unit": "%"}]}
{"compound": "C=C1CC[C@H](O)C/C1=C/C=C1\\CCC[C@]2(C)[C@@H]([C@H](C)/C=C/[C@H](C)C(C)C)CC[C@@H]12", "note": "[Vitamin D2]", "values": [{"measurement": "Observed Vitamin D Total", "setting": "[2]; [3]", "value": 28, "unit": "ng/mL"}]}
